Measured values taken from paper PMC6572767.
These are yes or no findings as the source states them, for the method shown. In cells and extracts the contact can be indirect. A yes stands for co-enrichment or nearness to the bait. Other partners may have been found.

Amino acid sequences for entries named in this document (tags omitted). Residues count along the entry.
UniProt P11362, residues 22-822: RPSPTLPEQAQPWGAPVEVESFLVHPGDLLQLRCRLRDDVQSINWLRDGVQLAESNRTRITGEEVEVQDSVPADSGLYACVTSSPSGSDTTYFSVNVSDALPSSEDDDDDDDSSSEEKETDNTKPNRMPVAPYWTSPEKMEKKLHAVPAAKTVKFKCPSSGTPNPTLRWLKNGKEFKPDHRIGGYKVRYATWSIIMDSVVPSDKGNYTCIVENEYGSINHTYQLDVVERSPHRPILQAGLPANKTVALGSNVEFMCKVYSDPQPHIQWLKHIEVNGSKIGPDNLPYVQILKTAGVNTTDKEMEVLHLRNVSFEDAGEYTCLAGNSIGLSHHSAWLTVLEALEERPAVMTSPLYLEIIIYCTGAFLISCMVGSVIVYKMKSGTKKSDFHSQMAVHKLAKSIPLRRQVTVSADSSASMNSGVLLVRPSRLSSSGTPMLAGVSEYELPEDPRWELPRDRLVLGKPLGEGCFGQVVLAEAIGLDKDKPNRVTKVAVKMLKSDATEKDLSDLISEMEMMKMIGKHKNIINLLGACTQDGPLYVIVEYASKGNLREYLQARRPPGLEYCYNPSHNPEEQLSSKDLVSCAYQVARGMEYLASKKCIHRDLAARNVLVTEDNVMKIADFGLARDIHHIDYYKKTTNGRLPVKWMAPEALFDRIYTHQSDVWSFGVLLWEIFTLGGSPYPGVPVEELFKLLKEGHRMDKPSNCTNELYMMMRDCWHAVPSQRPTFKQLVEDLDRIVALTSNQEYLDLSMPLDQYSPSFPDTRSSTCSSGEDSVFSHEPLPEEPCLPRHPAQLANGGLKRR
UniProt Q15418: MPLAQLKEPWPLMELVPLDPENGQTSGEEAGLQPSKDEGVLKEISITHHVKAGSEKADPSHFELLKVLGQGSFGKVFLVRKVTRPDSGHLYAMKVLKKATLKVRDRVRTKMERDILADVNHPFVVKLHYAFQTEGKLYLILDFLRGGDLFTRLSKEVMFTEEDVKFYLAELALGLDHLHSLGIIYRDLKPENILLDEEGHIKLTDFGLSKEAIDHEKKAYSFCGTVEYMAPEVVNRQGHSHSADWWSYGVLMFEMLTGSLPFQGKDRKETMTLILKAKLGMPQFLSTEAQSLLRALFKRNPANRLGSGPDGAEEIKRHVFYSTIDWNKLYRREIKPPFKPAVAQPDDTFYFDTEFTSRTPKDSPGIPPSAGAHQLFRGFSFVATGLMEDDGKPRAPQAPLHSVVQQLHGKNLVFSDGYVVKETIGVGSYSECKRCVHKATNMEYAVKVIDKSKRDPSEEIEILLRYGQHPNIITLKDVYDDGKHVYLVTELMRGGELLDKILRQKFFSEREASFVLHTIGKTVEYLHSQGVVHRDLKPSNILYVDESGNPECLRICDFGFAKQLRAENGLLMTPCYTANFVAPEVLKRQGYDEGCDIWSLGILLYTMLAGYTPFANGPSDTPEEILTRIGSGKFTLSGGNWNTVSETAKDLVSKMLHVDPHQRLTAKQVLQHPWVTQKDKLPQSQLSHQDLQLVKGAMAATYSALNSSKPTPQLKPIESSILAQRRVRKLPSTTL

Molecular target: streptavidin-binding peptide (SBP)-tagged FGFR1 (UniProt P11362)
Assay: affinity purification with mass spectrometry; SBP-FGFR1 from U2OS-SBP-R1 lysate held on Streptavidin Agarose overnight at 4 °C; cells serum starved 4 h, Pitstop2 30 μM 15 min, FGF1 100 ng/ml and heparin 10 U/ml 15 min; control U2OS-R1 cells (untagged FGFR1); 5 repeats

Row | binding | Molecule
1 | binds | RSK1 (Ribosomal S6-kinase) (from UniProt Q15418 1-735) (enzyme)
2 | binds | EGF-like repeat and discoidin I-like domain-containing protein 3 (protein, UniProt O43854 24-480) DICDPNPCENGGICLPGLADGSFSCECPDGFTDPNCSSVVEVASDEEEPTSAGPCTPNPCHNGGTCEISEAYRGDTFIGYVCKCPRGFNGIHCQHNINECEVEPCKNGGICTDLVANYSCECPGEFMGRNCQYKCSGPLGIEGGIISNQQITASSTHRALFGLQKWYPYYARLNKKGLINAWTAAENDRWPWIQINLQRKMRVTGVITQGAKRIGSPEYIKSYKIAYSNDGKTWAMYKVKGTNEDMVFRGNIDNNTPYANSFTPPIKAQYVRLYPQVCRRHCTLRMELLGCELSGCSEPLGMKSGHIQDYQITASSIFRTLNMDMFTWEPRKARLDKQGKVNAWTSGHNDQSQWLQVDLLVPTKVTGIITQGAKDFGHVQFVGSYKLAYSNDGEHWTVYQDEKQRKDKVFQGNFDNDTHRKNVIDPPIYARHIRILPWSWYGRITLRSELLGCTEEE
